Data: patent US6726932B2, “Fatty acid-containing composition” (Nippon Zoki Pharmaceutical Co., Ltd., priority 2000, dated 2004)
At least one read-out could not be matched to a standard name with certainty.

System: mast cells
Assay: Suppressive action to histamine release from mast cells (Compound 48/80-induced degranulation)
Format: cell-based, rat
Settings: control = 100%, ± S.E., n = 3
[1] = Table 3 (very high sensitivity cells), dilution rate 1/100

SMILES | Released Histamine Value = V.S. Control (Table 2, dilution rate 1/4) [%] | Released Histamine Value = V.S. Control [1] [%] | Released Histamine Value = V.S. Control (Table 3 (very high sensitivity cells), dilution rate 1/200) [%]
CCCCCCCCCC(=O)O [Capric acid, capric acid] | 94.5 ± 0.90 | – | –
CCC(C)CCCCCCCCCCCC(=O)O (stereo not shown) [13-Methyl-pentadecanoic acid, 13-methylpentadecanoic acid] | – | 101.9 ± 0.97 | –
CCCCCCCCC(CCCCCC)C(=O)O (stereo not shown) [2-Hexyldecanoic acid, 2-hexyldecanoic acid] | – | 81.4 ± 0.94 | 102.0 ± 1.18
